Results on one molecule are retold here after patent US7932227 (UNIVERSITY OF VIRGINIA PATENT FOUNDATION, dated 2011).

Test [1] deals with human SDC1 'del 51-252' (human). Briefly: lacritin-intein beads with lysate of HEK293T transfectants, 3G10 blot.
For test [2], the target named is human SDC1 'del 51-310' (human). The test is described as above.

Results are given in words; binding and its absence hold for the method and conditions named. Binding calls can cover weak binding; strength is not graded here.

B1: lacritin-intein (lacritin coupled to chitin beads via chitin-binding intein) (ligand, not shown: small tags and cut ends)
chain: EDASSDSTGADPAQEAGTSKPNEEISGPAEPASPPETTTTAQETSAAAVQGTAKVTSSRQELNPLKSIVEKSILLTEQALAKAGKGMHGGVPGGKQFIENGSEFAQKLLKKFSLLKPWA
notes: Bacterial fusion protein held on chitin beads; also called lacritin-intein beads; lacritin column
Regarding B1, the binding result in test [1] and in test [2] was “binds” each time.
